Series [1] relates to HLA molecules of primary tumor and normal tissue samples (cancer entities). Nature of the series: Identification and label-free LC-MS quantitation of HLA-presented tumor-associated peptides on tissue samples. Also noted: species or system human. As to conditions: cancer entities on whose tumor tissue samples the HLA-presented peptide was found (LC-MS); abbreviations in the footnotes of Table 8a.

The test system of series [2] is source gene exon mRNA in tumor and normal tissue samples. Nature of the series: Expression profiling (RNAseq) of genes encoding the peptides, tumor versus normal tissues. More on the design: species or system human. The following applies: for Exon Expression in tumor types vs normal tissue panel: over-expressed (+): tumor types in which the peptide's exon is over-expressed (+) vs panel of normal tissues; for Exon Expression in tumor types vs normal tissue panel: over-expressed (+) / Exon Expression in tumor types vs normal tissue panel: highly over-expressed (++) / Exon Expression in tumor types vs normal tissue panel: very highly over-expressed (+++): RNAseq, Table 9a; for Exon Expression in tumor types vs normal tissue panel: highly over-expressed (++): tumor types in which the peptide's exon is highly over-expressed (++) vs panel of normal tissues; for Exon Expression in tumor types vs normal tissue panel: very highly over-expressed (+++): tumor types in which the peptide's exon is very highly over-expressed (+++) vs panel of normal tissues; for expression profile of source gene, over-expressed in different cancer samples: FIGS. 2A-2Q, RNAseq FPKM, tumor versus normal samples.

For some assays here: Expression grades refer to the transcript from which the peptide derives; gene names, where given, were looked up from the sequence.

Take “335: peptide found in AGTR2 (gene looked up) (RYQSVIYPF; listed as Homo sapiens) [compound 335]”: in series [1], the “Peptide Presentation on cancer entities” value is recorded as “UEC”. For the same substance, the “Exon Expression in tumor types vs normal tissue panel: over-expressed (+)” value in series [2] is “NSCLCother, UEC”.
In the case of “226: peptide found in FLT3 (gene looked up) (TYSTNRTMI; listed as Homo sapiens) [compound 226]”, the “Peptide Presentation on cancer entities” value in series [1] was “CCC”. Also, the “Exon Expression in tumor types vs normal tissue panel: highly over-expressed (++)” value in series [2] is recorded as “AML”.
As for “295: peptide found in APOB (gene looked up) (KYNRQSMTL; listed as Homo sapiens) [compound 295]”, the “Peptide Presentation on cancer entities” value in series [1] is recorded as “HCC”. In series [2], the “Exon Expression in tumor types vs normal tissue panel: highly over-expressed (++)” value is listed as “HCC”.
“95: peptide found in OR51E2 (gene looked up) (IGLSVVHRF; listed as Homo sapiens) [compound 95]”: in series [1], the “Peptide Presentation on cancer entities” value was “PRCA”. For the same substance, the “Exon Expression in tumor types vs normal tissue panel: very highly over-expressed (+++)” value in series [2] is “PRCA”.
For “133: peptide found in TERT (gene looked up) (FFYVTETTF; listed as Homo sapiens) [compound 133]”, the “Peptide Presentation on cancer entities” value in series [1] is given as “NHL”. Besides, in series [2], the “Exon Expression in tumor types vs normal tissue panel: highly over-expressed (++)” value is “HCC, NHL” and the “Exon Expression in tumor types vs normal tissue panel: over-expressed (+)” value was “AML, GC, OC, OSCAR, SCLC, UEC”.
With “62: peptide found in OXTR (gene looked up) (VYIVPVIVL; listed as Homo sapiens) [compound 62]”, in series [1], the “Peptide Presentation on cancer entities” value is recorded as “GBM, NSCLCsquam”. Also, in series [2], the “Exon Expression in tumor types vs normal tissue panel: highly over-expressed (++)” value is “CCC” and the “Exon Expression in tumor types vs normal tissue panel: over-expressed (+)” value is reported as “GBM, OC”.
Take “299: peptide found in CXCR3 (gene looked up) (FLPALYSLL; listed as Homo sapiens) [compound 299]”: the “Peptide Presentation on cancer entities” value in series [1] is given as “NSCLCadeno”. In addition, the “Exon Expression in tumor types vs normal tissue panel: highly over-expressed (++)” value in series [2] is listed as “CLL”.
The like results for “215: peptide found in PTPRZ1 (gene looked up) (KASKITFHW; listed as Homo sapiens) [compound 215]” were, in that order, “GBM” and “GBM”.
As for “31: peptide found in MMP1 (gene looked up) (KQMQEFFGL; listed as Homo sapiens) [compound 31]”, the “Peptide Presentation on cancer entities” value in series [1] was “GC, NSCLCsquam”. Moreover, in series [2], the “Exon Expression in tumor types vs normal tissue panel: highly over-expressed (++)” value is “GC, NSCLCadeno, NSCLCsquam, OSCAR, UBC”; the “Exon Expression in tumor types vs normal tissue panel: over-expressed (+)” value is listed as “CRC, MEL, PACA”; the “Exon Expression in tumor types vs normal tissue panel: very highly over-expressed (+++)” value is recorded as “HNSCC”.
For “310: peptide found in MCOLN2 (gene looked up) (EFINGWYVL; listed as Homo sapiens) [compound 310]”, in series [1], the “Peptide Presentation on cancer entities” value is “HCC”. Moreover, in series [2], the “Exon Expression in tumor types vs normal tissue panel: highly over-expressed (++)” value is on record as “CLL” and the “Exon Expression in tumor types vs normal tissue panel: over-expressed (+)” value is “NHL”.
For the substance “48: peptide found in LOXL4 (gene looked up) (AWSPPATLFLF; listed as Homo sapiens) [compound 48]”, the “Peptide Presentation on cancer entities” value in series [1] is reported as “GC, MEL, NSCLCsquam, OC, RCC”. For the same substance, in series [2], the “Exon Expression in tumor types vs normal tissue panel: highly over-expressed (++)” value is reported as “MEL” and the “Exon Expression in tumor types vs normal tissue panel: over-expressed (+)” value is recorded as “CCC”.
Take “308: peptide found in TAS2R38 (gene looked up) (AAFISVPLLI; listed as Homo sapiens) [compound 308]”: the “Peptide Presentation on cancer entities” value in series [1] is “HCC”. For the same substance, in series [2], the “Exon Expression in tumor types vs normal tissue panel: highly over-expressed (++)” value was “CRC” and the “Exon Expression in tumor types vs normal tissue panel: over-expressed (+)” value is given as “GBC, GC, PACA, UBC”.
On to “374: peptide found in CCR4 (gene looked up) (MIFAVVVLF; listed as Homo sapiens) [compound 374]”, for which, in series [1], the “Peptide Presentation on cancer entities” value is “GBC, GBM, GC, MEL, NHL, NSCLCadeno, OC, OSCAR, PRCA”. Also, in series [2], the “Exon Expression in tumor types vs normal tissue panel: over-expressed (+)” value is on record as “NHL”.
With “334: peptide found in AGTR2 (gene looked up) (KVFGSFLTL; listed as Homo sapiens) [compound 334]”, the “Peptide Presentation on cancer entities” value in series [1] is given as “UEC”. Besides, the “Exon Expression in tumor types vs normal tissue panel: over-expressed (+)” value in series [2] is “NSCLCother, UEC”.
Consider “284: peptide found in ROS1 (gene looked up) (QFYSTLPNTI; listed as Homo sapiens) [compound 284]”, for which the “Peptide Presentation on cancer entities” value in series [1] was “HCC”. In series [2], the “Exon Expression in tumor types vs normal tissue panel: highly over-expressed (++)” value is recorded as “NSCLCadeno” and the “Exon Expression in tumor types vs normal tissue panel: over-expressed (+)” value is reported as “NSCLCother, NSCLCsquam”.
“15: peptide found in SLC6A3 (gene looked up) (FMVIAGMPLF; listed as Homo sapiens) [compound 15]”: in series [1], the “Peptide Presentation on cancer entities” value is “AML, CLL, GC, HCC, NHL, NSCLCother”. In series [2], the “Exon Expression in tumor types vs normal tissue panel: over-expressed (+)” value is “NSCLCadeno, NSCLCsquam” and the “Exon Expression in tumor types vs normal tissue panel: very highly over-expressed (+++)” value was “RCC”.
As for “12: peptide found in CHRNA9 (gene looked up) (KYMSRVLFVY; listed as Homo sapiens) [compound 12]”, in series [1], the “Peptide Presentation on cancer entities” value is listed as “CCC”. In series [2], the “Exon Expression in tumor types vs normal tissue panel: highly over-expressed (++)” value is recorded as “GBM, HNSCC, SCLC”; the “Exon Expression in tumor types vs normal tissue panel: over-expressed (+)” value is “MEL, NSCLCadeno, NSCLCsquam, OC, OSCAR, UBC, UEC”; the “Exon Expression in tumor types vs normal tissue panel: very highly over-expressed (+++)” value is reported as “NSCLCother”.
For “313: peptide found in APOB (gene looked up) (IFMENAFEL; listed as Homo sapiens) [compound 313]”, the “Peptide Presentation on cancer entities” value in series [1] is reported as “HCC”. In series [2], the “Exon Expression in tumor types vs normal tissue panel: highly over-expressed (++)” value is “HCC”.
As for “18: peptide found in MMP12 (gene looked up) (KYVDINTFRL; listed as Homo sapiens) [compound 18]”, the “Peptide Presentation on cancer entities” value in series [1] is given as “NSCLCsquam”. Further, in series [2], the “Exon Expression in tumor types vs normal tissue panel: highly over-expressed (++)” value is “CCC, GC, MEL, NHL, NSCLCadeno, OC, PACA, UEC”; the “Exon Expression in tumor types vs normal tissue panel: over-expressed (+)” value is listed as “HCC, RCC”; the “Exon Expression in tumor types vs normal tissue panel: very highly over-expressed (+++)” value is reported as “CRC, GBC, HNSCC, NSCLCother, NSCLCsquam, OSCAR, SCLC, UBC”.
For “289: peptide found in FOXP3 (gene looked up) (RTLNEIYHW; listed as Homo sapiens) [compound 289]”, in series [1], the “Peptide Presentation on cancer entities” value was “NSCLCadeno, NSCLCsquam”. Moreover, in series [2], the “Exon Expression in tumor types vs normal tissue panel: highly over-expressed (++)” value is listed as “NHL”.
With “187: peptide found in LIN28A (gene looked up) (KWFNVRMGFGF; listed as Homo sapiens) [compound 187]”, the “Peptide Presentation on cancer entities” value in series [1] is given as “NHL”. In series [2], the “Exon Expression in tumor types vs normal tissue panel: highly over-expressed (++)” value is listed as “HCC, SCLC” and the “Exon Expression in tumor types vs normal tissue panel: over-expressed (+)” value is on record as “GBC, MEL, OC, UBC, UEC”.
For the substance “372: peptide found in PDE11A (gene looked up) (LYHNWRHAF; listed as Homo sapiens) [compound 372]”, the “Peptide Presentation on cancer entities” value in series [1] is listed as “BRCA, OC, RCC”. For the same substance, the “Exon Expression in tumor types vs normal tissue panel: over-expressed (+)” value in series [2] is listed as “PRCA”.
Take “142: peptide found in NOTUM (gene looked up) (PYWWNANMVF; listed as Homo sapiens) [compound 142]”: the “Peptide Presentation on cancer entities” value in series [1] is “NHL”. Further, the “Exon Expression in tumor types vs normal tissue panel: highly over-expressed (++)” value in series [2] is “HCC”.
As to “SEQ ID No.: 18: peptide found in MMP12 (gene looked up) (KYVDINTFRL; listed as Homo sapiens)”, in series [2], the “expression profile of source gene, over-expressed in different cancer samples” value (“expression profile … in different cancer samples” for short) is on record as “over-expressed”.
On to “220: peptide found in CCR8 (gene looked up) (TYATHVTEI; listed as Homo sapiens) [compound 220]”, for which, in series [2], the “Exon Expression in tumor types vs normal tissue panel: highly over-expressed (++)” value is “NHL” and the “Exon Expression in tumor types vs normal tissue panel: over-expressed (+)” value is listed as “BRCA, CCC, HNSCC, MEL, NSCLCadeno, NSCLCother, NSCLCsquam, OSCAR, UBC”.
Consider “SEQ ID No.: 13: peptide found in CHRNA9 (gene looked up) (KYYIATMAL; listed as Homo sapiens)”, for which the “expression profile … in different cancer samples” value in series [2] is listed as “over-expressed”.
On to “SEQ ID No.: 31: peptide found in MMP1 (gene looked up) (KQMQEFFGL; listed as Homo sapiens)”, for which the “expression profile … in different cancer samples” value in series [2] is listed as “over-expressed”.
As for “116: peptide found in MMP1 (gene looked up) (TYFFVANKY; listed as Homo sapiens) [compound 116]”, in series [2], the “Exon Expression in tumor types vs normal tissue panel: highly over-expressed (++)” value is recorded as “HNSCC, NSCLCsquam, OSCAR” and the “Exon Expression in tumor types vs normal tissue panel: over-expressed (+)” value was “CRC, GC, NSCLCadeno, PACA, UBC”.
Regarding “150: peptide found in MRGPRX4 (gene looked up) (FIPVAWLIF; listed as Homo sapiens) [compound 150]”, in series [2], the “Exon Expression in tumor types vs normal tissue panel: highly over-expressed (++)” value is listed as “MEL” and the “Exon Expression in tumor types vs normal tissue panel: over-expressed (+)” value is “HNSCC, UBC”.
As for “SEQ ID No.: 3: peptide found in TRPM8 (gene looked up) (KFLTHDVLTELF; listed as Homo sapiens)”, the “expression profile … in different cancer samples” value in series [2] is reported as “over-expressed”.
On the same count and under the same terms, next, “SEQ ID No.: 28: peptide found in OR51E2 (gene looked up) (FWFDSREISF; listed as Homo sapiens)”: “over-expressed”.

These data come from US12060400B2, “Peptides for use in immunotherapy against cancers” (Immatics Biotechnologies GmbH, priority 2018, dated 2024).
